According to US20160207973A1:
Substitutions are numbered along the chain they refer to. No constants are given. Whether binding was seen depends on the method and setting. Some results given as binding are weak or reduced against the parent protein; the word gives no strength. For part of these data: Where a sequence is shown, tags or fusion partners need not be part of it.

By UniProt entry, the sequences of proteins in these tests, tags left out. Residues count along the entry.
UniProt P36894, residues 24-152: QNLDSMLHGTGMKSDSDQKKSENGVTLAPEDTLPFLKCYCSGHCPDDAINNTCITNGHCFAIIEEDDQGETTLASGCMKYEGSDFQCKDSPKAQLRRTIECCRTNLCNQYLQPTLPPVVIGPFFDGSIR
UniProt P27037: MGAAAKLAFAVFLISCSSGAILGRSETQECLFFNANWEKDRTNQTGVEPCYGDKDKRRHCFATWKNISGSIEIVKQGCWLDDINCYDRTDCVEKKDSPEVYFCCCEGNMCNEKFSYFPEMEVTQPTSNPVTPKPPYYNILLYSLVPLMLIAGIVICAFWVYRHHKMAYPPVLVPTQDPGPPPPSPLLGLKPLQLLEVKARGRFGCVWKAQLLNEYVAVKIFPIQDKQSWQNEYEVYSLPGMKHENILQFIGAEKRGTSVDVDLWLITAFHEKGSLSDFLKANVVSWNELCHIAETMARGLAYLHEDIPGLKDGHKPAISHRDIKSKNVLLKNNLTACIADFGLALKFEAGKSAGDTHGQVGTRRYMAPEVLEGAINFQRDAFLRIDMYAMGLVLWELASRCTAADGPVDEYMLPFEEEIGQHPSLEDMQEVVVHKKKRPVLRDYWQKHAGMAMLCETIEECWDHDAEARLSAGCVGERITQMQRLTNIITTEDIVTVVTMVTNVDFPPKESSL

Key:
[1] = biological target: T1, ALK6 receptor-human-IgG1-Fc fusion protein (human) (UniProt O00238); assay: as stated in Example 4
T1 sequence (looked up): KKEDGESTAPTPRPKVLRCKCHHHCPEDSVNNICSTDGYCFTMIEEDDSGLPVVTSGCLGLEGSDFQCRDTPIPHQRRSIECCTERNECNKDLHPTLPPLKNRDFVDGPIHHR

[2] = biological target: ALK3 receptor-human-IgG1-Fc fusion protein (human) (UniProt P36894); assay: as stated in Example 4
[3] = biological target: T1, ALK6 receptor-human-IgG1-Fc fusion protein (human); assay: BLI (Octet), receptor-Fc on anti-human IgG tips
[4] = biological target: ActRIIA receptor-human-IgG1-Fc fusion protein (human) (UniProt P27037); assay: BLI (Octet), receptor-Fc on anti-human IgG tips
[5] = biological target: T2, ActRIIB receptor-human-IgG1-Fc fusion protein (human) (UniProt Q13705); assay: BLI (Octet), receptor-Fc on anti-human IgG tips
T2 sequence (looked up): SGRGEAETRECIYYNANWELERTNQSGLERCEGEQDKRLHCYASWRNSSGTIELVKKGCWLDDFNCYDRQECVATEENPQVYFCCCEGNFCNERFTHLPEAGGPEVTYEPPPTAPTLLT

[6] = biological target: ALK3 receptor-human-IgG1-Fc fusion protein (human) (UniProt P36894); assay: BLI (Octet), receptor-Fc on anti-human IgG tips
[7] = biological target: T3, BMPRII receptor-human-IgG1-Fc fusion protein (human) (UniProt Q13873); assay: BLI (Octet), receptor-Fc on anti-human IgG tips
T3 sequence (looked up): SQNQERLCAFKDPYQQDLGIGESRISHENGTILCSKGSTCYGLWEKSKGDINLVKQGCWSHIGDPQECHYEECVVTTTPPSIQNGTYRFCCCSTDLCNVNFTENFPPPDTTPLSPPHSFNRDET

[8] = biological target: T1, ALK6 receptor-human-IgG1-Fc fusion protein (human); assay: Example 2
[9] = biological target: ALK3 receptor-human-IgG1-Fc fusion protein (human) (UniProt P36894); assay: Example 2
[10] = biological target: T4, ALK2 receptor-human-IgG1-Fc fusion protein (human) (UniProt Q04771); assay: BLI (Octet), receptor-Fc on anti-human IgG tips
T4 sequence (looked up): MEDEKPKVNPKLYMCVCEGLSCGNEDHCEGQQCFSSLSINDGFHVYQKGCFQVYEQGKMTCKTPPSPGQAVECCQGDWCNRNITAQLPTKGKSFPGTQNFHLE

Measured: binding

B1: designer BMPE (ligand)
chain: QAKHKQRKRLKSSCKRHPLYVDFSDVGWNDWIVAPPGYHAFYCDGECSFPLNAHMNATNHAIVQTLVHLMNPEYVPKPCCAPTELSAISMLYLDENEKVVLKNYQDMVVEGCGCR
modifications: N-linked glycan at N56 (CHO-produced)
binds: [1] | [2] | [3] | [4] | [5] | [6] | [7] | [8] | [9]

B2: designer BMP-GEP (ligand)
chain: B1 chain with V33I, H39A, S86N, M90V, L93F, E95D, E97S, K98N, V100I
binds: [3] | [4] | [5] | [6] | [7] | [10]

B3: designer BMP-GER (ligand)
chain: B1 chain with V33I, P36R, H39A, S86N, M90V, L93F, E95D, E97S, K98N, V100I
binds: [3] | [4] | [5] | [6] | [7] | [10]
